# From the supplement of paper PMC12823440, “Inhibitors supercharge kinase turnover through native proteolytic circuits” (Nature, 2025)
# Protein sequences, listed by entry. Tags and fused reporters are not part of them. Lines headed by an entry give the natural chain unless they say otherwise; changes in a name come on top.
# UniProt P00519, whole entry: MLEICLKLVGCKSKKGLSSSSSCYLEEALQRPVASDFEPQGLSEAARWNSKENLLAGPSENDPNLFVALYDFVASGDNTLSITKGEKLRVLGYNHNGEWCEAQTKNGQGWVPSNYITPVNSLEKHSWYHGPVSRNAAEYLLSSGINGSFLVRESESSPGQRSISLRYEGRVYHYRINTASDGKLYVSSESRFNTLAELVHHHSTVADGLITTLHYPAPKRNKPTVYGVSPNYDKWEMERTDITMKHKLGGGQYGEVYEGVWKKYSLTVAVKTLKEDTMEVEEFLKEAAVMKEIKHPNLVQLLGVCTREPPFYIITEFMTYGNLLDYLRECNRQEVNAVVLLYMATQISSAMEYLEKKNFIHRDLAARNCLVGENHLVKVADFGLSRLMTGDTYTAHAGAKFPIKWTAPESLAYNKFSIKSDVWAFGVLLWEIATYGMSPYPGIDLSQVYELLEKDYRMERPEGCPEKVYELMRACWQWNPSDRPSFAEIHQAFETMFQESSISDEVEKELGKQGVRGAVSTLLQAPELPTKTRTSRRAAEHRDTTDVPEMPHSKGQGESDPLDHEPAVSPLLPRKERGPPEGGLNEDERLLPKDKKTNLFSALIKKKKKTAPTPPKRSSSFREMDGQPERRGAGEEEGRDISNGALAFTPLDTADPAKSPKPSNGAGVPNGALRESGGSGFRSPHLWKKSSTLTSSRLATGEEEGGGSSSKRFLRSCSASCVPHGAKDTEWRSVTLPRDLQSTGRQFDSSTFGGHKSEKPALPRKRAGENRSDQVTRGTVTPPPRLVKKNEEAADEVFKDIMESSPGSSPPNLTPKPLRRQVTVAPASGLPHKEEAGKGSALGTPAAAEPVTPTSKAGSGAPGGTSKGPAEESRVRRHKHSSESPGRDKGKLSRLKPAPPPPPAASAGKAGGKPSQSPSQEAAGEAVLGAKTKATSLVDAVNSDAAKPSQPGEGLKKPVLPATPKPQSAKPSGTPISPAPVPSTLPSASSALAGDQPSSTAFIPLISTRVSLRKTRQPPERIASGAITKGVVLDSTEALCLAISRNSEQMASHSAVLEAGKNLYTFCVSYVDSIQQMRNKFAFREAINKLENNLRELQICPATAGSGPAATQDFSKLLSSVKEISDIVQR
# UniProt P10398: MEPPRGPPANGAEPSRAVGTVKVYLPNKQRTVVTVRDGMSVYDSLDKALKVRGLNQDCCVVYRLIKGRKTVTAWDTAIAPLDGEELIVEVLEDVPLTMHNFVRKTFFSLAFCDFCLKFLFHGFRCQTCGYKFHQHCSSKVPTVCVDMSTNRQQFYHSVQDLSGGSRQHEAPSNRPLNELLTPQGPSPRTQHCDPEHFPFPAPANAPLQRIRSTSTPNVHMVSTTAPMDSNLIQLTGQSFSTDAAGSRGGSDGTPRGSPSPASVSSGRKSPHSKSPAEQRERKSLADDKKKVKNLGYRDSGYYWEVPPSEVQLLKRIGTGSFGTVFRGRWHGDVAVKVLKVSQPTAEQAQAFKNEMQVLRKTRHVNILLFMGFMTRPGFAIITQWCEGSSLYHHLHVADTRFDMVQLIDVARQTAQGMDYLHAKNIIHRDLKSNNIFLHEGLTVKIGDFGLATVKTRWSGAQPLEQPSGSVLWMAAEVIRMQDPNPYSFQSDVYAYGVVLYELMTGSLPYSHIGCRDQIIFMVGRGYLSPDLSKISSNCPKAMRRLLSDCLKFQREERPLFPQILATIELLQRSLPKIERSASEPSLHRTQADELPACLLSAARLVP
# UniProt O14965: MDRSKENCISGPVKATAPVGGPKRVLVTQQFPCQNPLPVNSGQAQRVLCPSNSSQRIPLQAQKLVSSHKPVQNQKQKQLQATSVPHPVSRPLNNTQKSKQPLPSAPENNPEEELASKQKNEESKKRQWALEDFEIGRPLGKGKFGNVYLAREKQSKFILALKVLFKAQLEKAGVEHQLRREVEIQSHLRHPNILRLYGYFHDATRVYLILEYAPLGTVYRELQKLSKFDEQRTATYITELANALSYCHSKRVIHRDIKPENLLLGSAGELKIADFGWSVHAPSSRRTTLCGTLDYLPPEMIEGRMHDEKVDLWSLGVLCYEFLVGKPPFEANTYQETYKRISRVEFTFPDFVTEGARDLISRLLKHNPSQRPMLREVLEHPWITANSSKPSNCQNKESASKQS
# UniProt Q9UQB9: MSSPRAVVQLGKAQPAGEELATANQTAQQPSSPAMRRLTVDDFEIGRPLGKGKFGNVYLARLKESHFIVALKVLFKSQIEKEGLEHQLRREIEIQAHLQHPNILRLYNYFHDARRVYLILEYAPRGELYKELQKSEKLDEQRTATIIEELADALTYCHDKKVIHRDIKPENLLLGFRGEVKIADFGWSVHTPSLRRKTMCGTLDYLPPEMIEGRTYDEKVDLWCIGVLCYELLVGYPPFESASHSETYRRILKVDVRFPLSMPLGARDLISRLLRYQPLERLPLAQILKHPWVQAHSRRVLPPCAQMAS
# UniProt P51451: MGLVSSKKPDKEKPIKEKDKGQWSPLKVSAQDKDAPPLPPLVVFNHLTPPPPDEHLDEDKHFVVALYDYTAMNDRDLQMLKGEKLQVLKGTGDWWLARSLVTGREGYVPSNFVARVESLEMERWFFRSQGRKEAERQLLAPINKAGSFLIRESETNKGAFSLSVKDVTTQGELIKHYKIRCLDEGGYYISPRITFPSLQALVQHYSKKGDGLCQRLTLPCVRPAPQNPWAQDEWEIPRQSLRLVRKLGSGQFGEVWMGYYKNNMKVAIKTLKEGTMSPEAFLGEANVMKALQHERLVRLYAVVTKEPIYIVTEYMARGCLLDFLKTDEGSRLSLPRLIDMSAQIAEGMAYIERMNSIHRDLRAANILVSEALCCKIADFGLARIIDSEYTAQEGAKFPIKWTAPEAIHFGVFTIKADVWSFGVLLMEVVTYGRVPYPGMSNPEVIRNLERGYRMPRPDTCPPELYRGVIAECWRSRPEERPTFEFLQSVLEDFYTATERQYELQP
# UniProt P51813: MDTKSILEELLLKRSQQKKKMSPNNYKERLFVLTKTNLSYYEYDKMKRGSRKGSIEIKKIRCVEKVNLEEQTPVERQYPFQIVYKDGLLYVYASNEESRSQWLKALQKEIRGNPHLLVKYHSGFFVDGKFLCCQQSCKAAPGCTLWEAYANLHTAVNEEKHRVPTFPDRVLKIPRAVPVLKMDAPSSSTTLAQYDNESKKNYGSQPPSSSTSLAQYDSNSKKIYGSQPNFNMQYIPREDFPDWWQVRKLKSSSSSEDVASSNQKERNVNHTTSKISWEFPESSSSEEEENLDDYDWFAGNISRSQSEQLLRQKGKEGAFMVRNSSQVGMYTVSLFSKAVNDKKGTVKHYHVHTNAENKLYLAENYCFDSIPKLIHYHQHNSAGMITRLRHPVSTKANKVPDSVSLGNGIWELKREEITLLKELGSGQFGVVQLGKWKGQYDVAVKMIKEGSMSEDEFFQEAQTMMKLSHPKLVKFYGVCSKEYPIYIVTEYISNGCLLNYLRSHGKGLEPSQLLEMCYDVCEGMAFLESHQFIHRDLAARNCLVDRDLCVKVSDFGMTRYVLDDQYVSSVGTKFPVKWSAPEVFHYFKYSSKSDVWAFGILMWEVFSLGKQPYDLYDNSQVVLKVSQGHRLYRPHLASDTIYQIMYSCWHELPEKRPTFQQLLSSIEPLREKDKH
# UniProt Q06187: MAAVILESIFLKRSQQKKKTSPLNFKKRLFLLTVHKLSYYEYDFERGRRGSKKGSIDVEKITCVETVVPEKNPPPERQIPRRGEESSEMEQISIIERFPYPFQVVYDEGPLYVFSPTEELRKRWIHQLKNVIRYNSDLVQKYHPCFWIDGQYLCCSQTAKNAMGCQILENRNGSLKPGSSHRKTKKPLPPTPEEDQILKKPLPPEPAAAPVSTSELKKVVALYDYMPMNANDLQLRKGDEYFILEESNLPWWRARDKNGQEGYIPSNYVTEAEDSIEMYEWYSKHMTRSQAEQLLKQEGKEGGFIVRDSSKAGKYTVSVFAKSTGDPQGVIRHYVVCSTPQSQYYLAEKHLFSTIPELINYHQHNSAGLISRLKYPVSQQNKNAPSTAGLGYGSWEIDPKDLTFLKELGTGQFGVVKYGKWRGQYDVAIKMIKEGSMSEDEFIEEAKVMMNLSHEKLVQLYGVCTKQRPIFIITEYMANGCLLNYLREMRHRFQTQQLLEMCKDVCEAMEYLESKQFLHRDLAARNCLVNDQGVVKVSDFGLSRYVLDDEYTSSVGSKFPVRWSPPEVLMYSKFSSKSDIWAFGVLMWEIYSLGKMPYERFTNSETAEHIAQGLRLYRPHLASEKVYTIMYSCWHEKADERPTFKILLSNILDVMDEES
# UniProt Q13555: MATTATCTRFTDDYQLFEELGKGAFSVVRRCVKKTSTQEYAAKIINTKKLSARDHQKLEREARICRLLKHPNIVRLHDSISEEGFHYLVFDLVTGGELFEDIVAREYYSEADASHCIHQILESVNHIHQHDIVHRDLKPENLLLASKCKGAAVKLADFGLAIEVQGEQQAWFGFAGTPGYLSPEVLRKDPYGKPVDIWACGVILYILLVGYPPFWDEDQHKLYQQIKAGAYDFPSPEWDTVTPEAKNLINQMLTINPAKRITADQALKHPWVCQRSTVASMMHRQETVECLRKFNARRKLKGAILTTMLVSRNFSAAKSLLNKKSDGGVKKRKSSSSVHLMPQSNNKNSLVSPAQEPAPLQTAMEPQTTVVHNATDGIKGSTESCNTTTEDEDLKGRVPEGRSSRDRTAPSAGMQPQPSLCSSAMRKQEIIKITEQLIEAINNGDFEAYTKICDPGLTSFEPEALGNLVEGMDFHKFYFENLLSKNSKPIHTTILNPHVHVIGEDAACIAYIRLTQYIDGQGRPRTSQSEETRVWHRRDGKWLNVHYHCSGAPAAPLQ
# UniProt Q15131: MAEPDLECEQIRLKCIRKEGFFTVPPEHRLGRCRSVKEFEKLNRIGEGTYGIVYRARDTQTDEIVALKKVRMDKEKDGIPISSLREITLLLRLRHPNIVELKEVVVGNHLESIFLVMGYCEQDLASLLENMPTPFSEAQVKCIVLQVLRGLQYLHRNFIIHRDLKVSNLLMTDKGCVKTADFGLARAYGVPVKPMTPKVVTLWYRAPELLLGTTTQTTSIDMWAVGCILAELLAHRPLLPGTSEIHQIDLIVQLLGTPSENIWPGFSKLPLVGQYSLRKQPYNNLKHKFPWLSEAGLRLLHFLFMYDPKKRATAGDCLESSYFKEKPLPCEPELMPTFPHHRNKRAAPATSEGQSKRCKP
# UniProt Q00526: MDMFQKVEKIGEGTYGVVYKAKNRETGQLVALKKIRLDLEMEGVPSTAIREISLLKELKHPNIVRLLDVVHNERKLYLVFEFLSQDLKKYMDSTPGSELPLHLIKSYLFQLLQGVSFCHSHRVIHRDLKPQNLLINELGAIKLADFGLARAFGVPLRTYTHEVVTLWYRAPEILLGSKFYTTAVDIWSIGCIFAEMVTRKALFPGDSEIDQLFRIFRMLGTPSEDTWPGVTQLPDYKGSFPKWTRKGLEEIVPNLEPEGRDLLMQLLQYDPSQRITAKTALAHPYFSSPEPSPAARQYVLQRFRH
# UniProt P11802: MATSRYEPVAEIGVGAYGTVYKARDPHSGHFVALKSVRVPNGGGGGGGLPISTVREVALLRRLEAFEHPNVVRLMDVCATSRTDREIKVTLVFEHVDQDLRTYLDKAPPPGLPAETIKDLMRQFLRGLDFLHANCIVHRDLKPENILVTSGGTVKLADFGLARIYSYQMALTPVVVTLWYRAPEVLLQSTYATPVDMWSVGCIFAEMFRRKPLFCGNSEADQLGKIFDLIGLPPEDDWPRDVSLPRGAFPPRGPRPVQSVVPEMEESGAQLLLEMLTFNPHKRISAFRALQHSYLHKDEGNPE
# UniProt Q00535, whole entry, looked up: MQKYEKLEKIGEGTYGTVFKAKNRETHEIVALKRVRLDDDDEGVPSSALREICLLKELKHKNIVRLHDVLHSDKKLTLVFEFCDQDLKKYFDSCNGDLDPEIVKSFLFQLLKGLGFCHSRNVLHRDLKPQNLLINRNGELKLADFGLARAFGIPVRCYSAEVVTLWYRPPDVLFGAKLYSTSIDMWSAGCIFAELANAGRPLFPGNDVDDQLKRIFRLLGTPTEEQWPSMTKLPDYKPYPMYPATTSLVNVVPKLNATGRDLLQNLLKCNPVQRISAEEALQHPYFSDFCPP
# UniProt Q00534, whole entry: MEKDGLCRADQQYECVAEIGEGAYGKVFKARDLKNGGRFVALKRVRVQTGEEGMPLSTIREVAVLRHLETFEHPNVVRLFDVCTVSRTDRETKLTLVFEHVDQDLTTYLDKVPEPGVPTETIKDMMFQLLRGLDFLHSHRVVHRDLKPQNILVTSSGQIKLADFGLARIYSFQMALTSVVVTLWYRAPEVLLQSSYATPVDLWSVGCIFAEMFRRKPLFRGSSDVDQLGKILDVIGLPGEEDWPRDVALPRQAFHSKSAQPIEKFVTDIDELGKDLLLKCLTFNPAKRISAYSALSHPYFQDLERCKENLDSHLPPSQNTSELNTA
# Structures can show the parent of a compound that is named as a salt. This is one part of the list. The calls rarely recur for the same compound in another form.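 Kinases were expressed as nanoluciferase fusions in K562 cells and luminescence was read every 4 h between 2 and 18 h as percent of control, DMSO set to 100% and a positive control to 0%. A time point counts as decreased when the signal drops significantly (2 sigma). The hit call is the authors' own, does not follow from the count of time points alone, and its rule is not shown.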
# Key:
# Test in all cases: kinase-Nluc reporter destabilization hit call (1 = scored as downregulated) (binary); higher = compound decreases kinase abundance
# Conditions in all cases: K562; 2-18 h
# ABL1 = ABL1 (UniProt P00519)
# AKT1 = AKT1 (UniProt P31749)
# ALK = ALK (UniProt Q9UM73)
# ARAF = ARAF (UniProt P10398)
# AURKA = AURKA (UniProt O14965)
# AURKB = AURKB (UniProt Q96GD4)
# AURKC = AURKC (UniProt Q9UQB9)
# BLK = BLK (UniProt P51451)
# BMX = BMX (UniProt P51813)
# BRAF = BRAF (UniProt P15056)
# BRAF_V600E = system: BRAF_V600E
# BTK = BTK (UniProt Q06187)
# CAMK2A = CAMK2A (UniProt Q9UQM7)
# CAMK2G = CAMK2G (UniProt Q13555)
# CDK10 = CDK10 (UniProt Q15131)
# CDK2 = CDK2 (UniProt P24941)
# CDK3 = CDK3 (UniProt Q00526)
# CDK4 = CDK4 (UniProt P11802)
# CDK5 = CDK5 (UniProt Q00535)
# CDK6 = CDK6 (UniProt Q00534)
Compound,kinase-Nluc reporter destabilization hit call (ABL1),kinase-Nluc reporter destabilization hit call (AKT1),kinase-Nluc reporter destabilization hit call (ALK),kinase-Nluc reporter destabilization hit call (ARAF),kinase-Nluc reporter destabilization hit call (AURKA),kinase-Nluc reporter destabilization hit call (AURKB),kinase-Nluc reporter destabilization hit call (AURKC),kinase-Nluc reporter destabilization hit call (BLK),kinase-Nluc reporter destabilization hit call (BMX),kinase-Nluc reporter destabilization hit call (BRAF),kinase-Nluc reporter destabilization hit call (BRAF_V600E),kinase-Nluc reporter destabilization hit call (BTK),kinase-Nluc reporter destabilization hit call (CAMK2A),kinase-Nluc reporter destabilization hit call (CAMK2G),kinase-Nluc reporter destabilization hit call (CDK10),kinase-Nluc reporter destabilization hit call (CDK2),kinase-Nluc reporter destabilization hit call (CDK3),kinase-Nluc reporter destabilization hit call (CDK4),kinase-Nluc reporter destabilization hit call (CDK5),kinase-Nluc reporter destabilization hit call (CDK6)
COc1ccc(Cl)cc1N(CC(=O)Nc1ccc2c(c1)OCO2)S(=O)(=O)c1ccccc1 (2.5 µM),inactive: 0,inactive: 0,inactive: 0,inactive: 0,inactive: 0,inactive: 0,inactive: 0,inactive: 0,inactive: 0,inactive: 0,inactive: 0,inactive: 0,inactive: 0,inactive: 0,inactive: 0,inactive: 0,inactive: 0,inactive: 0,inactive: 0,inactive: 0
CC1=C(C#N)C(c2ccc3[nH]nc(C)c3c2)C(C#N)=C(C)N1 (10 µM),inactive: 0,inactive: 0,inactive: 0,inactive: 0,inactive: 0,inactive: 0,inactive: 0,inactive: 0,inactive: 0,inactive: 0,inactive: 0,inactive: 0,inactive: 0,inactive: 0,inactive: 0,inactive: 0,inactive: 0,inactive: 0,inactive: 0,inactive: 0
CN1CCC(Nc2ccc(C(=O)Nc3cc(-c4ccc5c(c4)OCO5)[nH]n3)cc2)CC1 (10 µM),inactive: 0,inactive: 0,inactive: 0,inactive: 0,inactive: 0,inactive: 0,inactive: 0,inactive: 0,inactive: 0,inactive: 0,inactive: 0,inactive: 0,inactive: 0,inactive: 0,inactive: 0,inactive: 0,inactive: 0,inactive: 0,inactive: 0,inactive: 0
Cc1cncc2cccc(S(=O)(=O)N3CCCNC[C@@H]3C)c12 [H-1152 (dihydrochloride)] (10 µM),inactive: 0,inactive: 0,inactive: 0,inactive: 0,inactive: 0,inactive: 0,inactive: 0,inactive: 0,inactive: 0,inactive: 0,inactive: 0,inactive: 0,inactive: 0,inactive: 0,inactive: 0,inactive: 0,inactive: 0,inactive: 0,inactive: 0,inactive: 0
Cc1nc(NC(=O)N2CCC[C@H]2C(N)=O)sc1-c1ccnc(C(C)(C)C(F)(F)F)c1 [Alpelisib] (2.5 µM),inactive: 0,inactive: 0,inactive: 0,inactive: 0,inactive: 0,inactive: 0,inactive: 0,inactive: 0,inactive: 0,inactive: 0,inactive: 0,inactive: 0,inactive: 0,inactive: 0,inactive: 0,inactive: 0,inactive: 0,inactive: 0,inactive: 0,inactive: 0
CCn1c(N)c(C(=O)NC)c(=O)c2ccc(C#CC(C)(O)COC)nc21 (stereo not given) (10 µM),inactive: 0,inactive: 0,inactive: 0,inactive: 0,inactive: 0,inactive: 0,inactive: 0,inactive: 0,inactive: 0,inactive: 0,inactive: 0,inactive: 0,inactive: 0,inactive: 0,inactive: 0,inactive: 0,inactive: 0,inactive: 0,inactive: 0,inactive: 0
CS(=O)(=O)c1cccc(CNc2nc(Nc3ccc4c(c3)CCC(=O)N4)ncc2C(F)(F)F)c1 (10 µM),inactive: 0,inactive: 0,inactive: 0,inactive: 0,inactive: 0,inactive: 0,inactive: 0,inactive: 0,inactive: 0,inactive: 0,inactive: 0,inactive: 0,inactive: 0,inactive: 0,inactive: 0,inactive: 0,inactive: 0,inactive: 0,inactive: 0,inactive: 0
CCC(F)(F)c1cc(N2CCC(S(C)(=O)=O)CC2)nc2sc(C(N)=O)c(N)c12 (10 µM),inactive: 0,inactive: 0,inactive: 0,inactive: 0,inactive: 0,inactive: 0,inactive: 0,inactive: 0,inactive: 0,inactive: 0,inactive: 0,inactive: 0,inactive: 0,inactive: 0,inactive: 0,inactive: 0,inactive: 0,inactive: 0,inactive: 0,inactive: 0
CC(C)n1cnc2c(Nc3cccc(Cl)c3)nc(N[C@H]3CCCC[C@@H]3N)nc21 (2.5 µM),inactive: 0,inactive: 0,inactive: 0,inactive: 0,inactive: 0,inactive: 0,inactive: 0,inactive: 0,inactive: 0,inactive: 0,inactive: 0,inactive: 0,inactive: 0,inactive: 0,inactive: 0,inactive: 0,inactive: 0,inactive: 0,inactive: 0,inactive: 0
CN(C)CCn1cc2cc(NC(=O)c3cccc(C(F)(F)F)n3)c(C(C)(C)O)cc2n1 (10 µM),inactive: 0,inactive: 0,inactive: 0,inactive: 0,inactive: 0,inactive: 0,inactive: 0,inactive: 0,inactive: 0,inactive: 0,inactive: 0,inactive: 0,inactive: 0,inactive: 0,inactive: 0,inactive: 0,inactive: 0,inactive: 0,inactive: 0,inactive: 0
COc1cc(Nc2ccnc3ccc(Br)cc23)cc(OC)c1OC (2.5 µM),inactive: 0,inactive: 0,inactive: 0,inactive: 0,inactive: 0,inactive: 0,inactive: 0,inactive: 0,inactive: 0,inactive: 0,inactive: 0,inactive: 0,inactive: 0,inactive: 0,inactive: 0,inactive: 0,inactive: 0,inactive: 0,inactive: 0,inactive: 0
Cc1n[nH]c2ncc(C(=O)N3CCC[C@H]3c3ccc(Cl)cc3)cc12 (10 µM),inactive: 0,inactive: 0,inactive: 0,inactive: 0,inactive: 0,inactive: 0,inactive: 0,inactive: 0,inactive: 0,inactive: 0,inactive: 0,inactive: 0,inactive: 0,inactive: 0,inactive: 0,inactive: 0,inactive: 0,inactive: 0,inactive: 0,inactive: 0
C=CC(=O)N1CCC(c2ccc(C(N)=O)c(-c3ccc(Oc4ccccc4)cc3)n2)CC1 [Orelabrutinib] (2.5 µM),inactive: 0,inactive: 0,inactive: 0,inactive: 0,inactive: 0,inactive: 0,inactive: 0,inactive: 0,inactive: 0,inactive: 0,inactive: 0,inactive: 0,inactive: 0,inactive: 0,inactive: 0,inactive: 0,inactive: 0,inactive: 0,inactive: 0,inactive: 0
NC(=O)c1ccccc1Nc1ccnc(Nc2cccc(O)c2)n1 (10 µM),active: 1,inactive: 0,inactive: 0,inactive: 0,inactive: 0,inactive: 0,inactive: 0,inactive: 0,inactive: 0,inactive: 0,inactive: 0,inactive: 0,inactive: 0,inactive: 0,inactive: 0,inactive: 0,inactive: 0,inactive: 0,inactive: 0,inactive: 0
COC(=O)N1CCN(C2CCC(Nc3nc(Nc4cnn(C)c4)nc4ccc(CC#N)nc34)CC2)CC1 (stereo not given) (10 µM),inactive: 0,inactive: 0,inactive: 0,inactive: 0,inactive: 0,inactive: 0,inactive: 0,inactive: 0,inactive: 0,inactive: 0,inactive: 0,inactive: 0,inactive: 0,inactive: 0,inactive: 0,inactive: 0,inactive: 0,inactive: 0,inactive: 0,inactive: 0
N#C/C(=C/c1ccc(O)c(O)c1)C(=O)N1CCc2ccccc21 [Tyrphostin AG 528] (10 µM),inactive: 0,inactive: 0,inactive: 0,inactive: 0,inactive: 0,inactive: 0,inactive: 0,inactive: 0,inactive: 0,inactive: 0,inactive: 0,inactive: 0,inactive: 0,inactive: 0,inactive: 0,inactive: 0,inactive: 0,inactive: 0,inactive: 0,inactive: 0
CO[C@@H]1[C@H](N(C)C(=O)c2ccccc2)C[C@H]2O[C@]1(C)n1c3ccccc3c3c4c(c5c6ccccc6n2c5c31)C(=O)NC4 [Midostaurin] (2.5 µM),inactive: 0,inactive: 0,inactive: 0,inactive: 0,inactive: 0,inactive: 0,inactive: 0,inactive: 0,inactive: 0,inactive: 0,inactive: 0,inactive: 0,inactive: 0,inactive: 0,inactive: 0,inactive: 0,inactive: 0,inactive: 0,inactive: 0,inactive: 0
COCCOc1cnc2ccn([C@H](C)c3nnc4c(F)cc(-c5cnn(C)c5)cn34)c(=O)c2c1 (10 µM),inactive: 0,inactive: 0,inactive: 0,inactive: 0,inactive: 0,inactive: 0,inactive: 0,inactive: 0,inactive: 0,inactive: 0,inactive: 0,inactive: 0,inactive: 0,inactive: 0,inactive: 0,inactive: 0,inactive: 0,inactive: 0,inactive: 0,inactive: 0

# In a second layout: results already given
Compound	kinase-Nluc reporter destabilization hit call (ABL1)	kinase-Nluc reporter destabilization hit call (AKT1)	kinase-Nluc reporter destabilization hit call (ALK)	kinase-Nluc reporter destabilization hit call (ARAF)	kinase-Nluc reporter destabilization hit call (AURKA)	kinase-Nluc reporter destabilization hit call (AURKB)	kinase-Nluc reporter destabilization hit call (AURKC)	kinase-Nluc reporter destabilization hit call (BLK)	kinase-Nluc reporter destabilization hit call (BMX)	kinase-Nluc reporter destabilization hit call (BRAF)	kinase-Nluc reporter destabilization hit call (BRAF_V600E)	kinase-Nluc reporter destabilization hit call (BTK)	kinase-Nluc reporter destabilization hit call (CAMK2A)	kinase-Nluc reporter destabilization hit call (CAMK2G)	kinase-Nluc reporter destabilization hit call (CDK10)	kinase-Nluc reporter destabilization hit call (CDK2)	kinase-Nluc reporter destabilization hit call (CDK3)	kinase-Nluc reporter destabilization hit call (CDK4)	kinase-Nluc reporter destabilization hit call (CDK5)	kinase-Nluc reporter destabilization hit call (CDK6)
COC(=O)N1CCN(C2CCC(Nc3nc(Nc4cnn(C)c4)nc4ccc(CC#N)nc34)CC2)CC1 (stereo not given) (10 µM)	inactive: 0	inactive: 0	inactive: 0	inactive: 0	inactive: 0	inactive: 0	inactive: 0	inactive: 0	inactive: 0	inactive: 0	inactive: 0	inactive: 0	inactive: 0	inactive: 0	inactive: 0	inactive: 0	inactive: 0	inactive: 0	inactive: 0	inactive: 0
N#C/C(=C/c1ccc(O)c(O)c1)C(=O)N1CCc2ccccc21 [Tyrphostin AG 528] (10 µM)	inactive: 0	inactive: 0	inactive: 0	inactive: 0	inactive: 0	inactive: 0	inactive: 0	inactive: 0	inactive: 0	inactive: 0	inactive: 0	inactive: 0	inactive: 0	inactive: 0	inactive: 0	inactive: 0	inactive: 0	inactive: 0	inactive: 0	inactive: 0
